The list shows a part of the results.

Sequences of proteins named here, by UniProt entry; tags and fusion partners are left off.
UniProt Q0JBA9, entry or part of it: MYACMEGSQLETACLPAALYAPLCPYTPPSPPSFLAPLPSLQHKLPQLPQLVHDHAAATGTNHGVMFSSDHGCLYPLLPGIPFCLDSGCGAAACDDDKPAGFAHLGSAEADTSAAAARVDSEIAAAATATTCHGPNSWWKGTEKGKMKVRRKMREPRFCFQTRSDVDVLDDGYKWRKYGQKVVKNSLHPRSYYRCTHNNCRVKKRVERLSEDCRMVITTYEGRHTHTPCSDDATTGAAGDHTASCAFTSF

This assay has as its target OsWRKY34 (Oryza sativa, UniProt Q0JBA9 1-250). Kind of assay: protein-binding microarray (RPBM); PBS, 2% BSA, 51.3 ng/ul salmon testes DNA, 50 uM zinc acetate, 200 nM TF, 25 C, 1 h; high values mean tight binding. To be noted: protein: recombinant; tags: N-terminal polyhistidine and DsRed monomer fusion (pET32a); label: CyDye5-dUTP incorporated in the synthesized complementary strand; 3' TTTTT single-stranded linker to array surface; dsDNA, one strand shown. A digest of the protocol:
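In PBS with 2% BSA, salmon testes DNA and 50 µM zinc acetate, 200 nM protein was incubated on a custom Agilent array at 25 °C for 1 h and then washed off. The array had been made double-stranded by primer extension with Cy5-dUTP and blocked with 2% BSA. The proteins were transcription factors fused N-terminally to polyhistidine and DsRed, expressed in E. coli BL21-CodonPlus and purified on Ni–NTA. The binding signal is per-feature fluorescence intensity (arbitrary units) from an Axon 4000B scanner.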
For the sequence “TTACCACCTCCACCTCGCGCACTCAGTCTGTACTACCTGTCGGAGTCACCTAGTGCAG”, the binding signal was 8720 fluorescence intensity (a.u.). Regarding “TGGGTAATTTCGTGTGGATGGTGGCGGCGGCGGCGGCGGCCGGAGTCACCTAGTGCAG”, the binding signal was 12800 fluorescence intensity (a.u.). For “TATATTTGACCATTTCCTATCATTTAATTCATTGTTATATCGGAGTCACCTAGTGCAG”, the binding signal is 8530 fluorescence intensity (a.u.). “GATTTCATAATGAGATATACTCCCTCCGTTTCAGGTTATACGGAGTCACCTAGTGCAG”: the binding signal was 8260 fluorescence intensity (a.u.).

“CCTGCTGACCAACCTACGCTAGCTATCTTCCTCTTGTCGTCGGAGTCACCTAGTGCAG”: the binding signal was 11500 fluorescence intensity (a.u.). For “CTCTCTCTTCCGTTTGCTATATATTGGCACTTAATTAACACGGAGTCACCTAGTGCAG” the value was 8680 fluorescence intensity (a.u.). The figure for “TCCTCGCGCTCCCAGCCTTTCTTTGCACACGCCACACACCCGGAGTCACCTAGTGCAG” is 8050 fluorescence intensity (a.u.). For “GCCGCCTACTCCAACCACAGCCTGTGTGACAGCCCGTGGACGGAGTCACCTAGTGCAG” the value was 8420 fluorescence intensity (a.u.); for “ACCCTTCTGTTGTTCTTAGTCCCCTCTGCTGCAAGAAGGCCGGAGTCACCTAGTGCAG”, 8570 fluorescence intensity (a.u.). Turning to “GGGTTGGTGGTGATTTTTTTTTGTTCGCCCAAAATATTTTCGGAGTCACCTAGTGCAG”, the binding signal was 12800 fluorescence intensity (a.u.). The figure for “TCTCTCATCCGATTCGTATGTTTTTTCCTGCGGTCCAATCCGGAGTCACCTAGTGCAG” is 9580 fluorescence intensity (a.u.); for “GTTGCCGTTATCTTGGACATGTCATTGTCATCCTATAGTCCGGAGTCACCTAGTGCAG” it is 12400 fluorescence intensity (a.u.). The figure for “ACCGGAACCATGTCCATTCTATATCAACAAAGCATCTACCCGGAGTCACCTAGTGCAG” is 8410 fluorescence intensity (a.u.); for “GACGCGAAATCCCAATTTTCCCCACCAGCCGCCGCCACCTCGGAGTCACCTAGTGCAG” it is 10800 fluorescence intensity (a.u.); for “GGGTCAGGGTGGGCGTGGATTGATATTTTAATACGAATAACGGAGTCACCTAGTGCAG” it is 14300 fluorescence intensity (a.u.). The figure for “TTAGTAGTGGGCTATACTATTAAATTTAATTTGCTCTAATCGGAGTCACCTAGTGCAG” is 8250 fluorescence intensity (a.u.); for “CTCGCCCTCGACACGCTGGAAGTTTGTGTACGCGTCATTCCGGAGTCACCTAGTGCAG” it is 9080 fluorescence intensity (a.u.). As for “AATTTTGCTGGCCTTGCTGCCTCTCTTGTGCTTACTACTTCGGAGTCACCTAGTGCAG”, the binding signal was 10100 fluorescence intensity (a.u.). For “CATAAATTATTCCTGTCTTGTAGTACATCCATCCATCCATCGGAGTCACCTAGTGCAG” the value was 9450 fluorescence intensity (a.u.); for “ACGAACGGTCAAACATGTGCTAAAAAGTCAACGGTGTCAACGGAGTCACCTAGTGCAG”, 15900 fluorescence intensity (a.u.). For “GCATTTTACACGTTGGCTTGGGCGCGCCCACCGTACTGTACGGAGTCACCTAGTGCAG” the value was 8830 fluorescence intensity (a.u.). The figure for “TGTCTCATGTCAGGAGGCTCCTGTGTTGCCCAAGTCTTTACGGAGTCACCTAGTGCAG” is 11700 fluorescence intensity (a.u.); for “CCCACTGGCGACTCTTCCTCACCGCCACCAACGCCGACGACGGAGTCACCTAGTGCAG” it is 9430 fluorescence intensity (a.u.); for “GGGGTAATTTCTCTGTGTTTTGAGTTGAGGGAGATAATTCCGGAGTCACCTAGTGCAG” it is 16900 fluorescence intensity (a.u.). For the sequence “AAAGTGAATGTTGGAGGTTTGTGATTGGTTGGGAGGAGAACGGAGTCACCTAGTGCAG”, the binding signal is 8200 fluorescence intensity (a.u.). “CTCTCACAACCAGTCAACCACAACCATCCGTTCGATTGATCGGAGTCACCTAGTGCAG”: the binding signal was 8320 fluorescence intensity (a.u.).

Turning to “TTTATACATATGTGTTTATCATACCTCACGTGTCGTATATCGGAGTCACCTAGTGCAG”, the binding signal is 8040 fluorescence intensity (a.u.). With “ATGTCCTCCTCTCGTTGACATCTTGACTTTCGTTGCCACCCGGAGTCACCTAGTGCAG”, the binding signal was 8790 fluorescence intensity (a.u.). With “CGCCCACCGCCGCCGCCGCCGCCGCCCATCCTCCTTCCTCCGGAGTCACCTAGTGCAG”, the binding signal is 9680 fluorescence intensity (a.u.). For “TTTACATATCTATCTTTTTTTTTTGTTTTTTCTCGCTTTTCGGAGTCACCTAGTGCAG” the value was 8460 fluorescence intensity (a.u.); for “CGGCGCTCTCCTCCACCTCCGCGGCACATCCATCTTTTTCCGGAGTCACCTAGTGCAG”, 9780 fluorescence intensity (a.u.); for “ATCTAACTTCACTTTTTCAAGTTTGCATTTGATCCTATTTCGGAGTCACCTAGTGCAG”, 8660 fluorescence intensity (a.u.). For the sequence “CCCTAGAGGAGGGAAGGAGGAAGGGGATGGACAAAGTAGACGGAGTCACCTAGTGCAG”, the binding signal is 8960 fluorescence intensity (a.u.). The figure for “GGAGTACAACAGCAAAGCTTCCAACACCGTCCGATTCTCACGGAGTCACCTAGTGCAG” is 8620 fluorescence intensity (a.u.). For “GGCCCAATTTTGTGAGCCCAAACTTCTCGCGTGTCCTTCTCGGAGTCACCTAGTGCAG” the value was 9600 fluorescence intensity (a.u.); for “ACTACAGAGTTATGGTGGATTTTGTGCTGTTACCTATTTGCGGAGTCACCTAGTGCAG”, 8420 fluorescence intensity (a.u.). The figure for “CAGCCTCTTGTTTCTCTGCCTTTTTAGTCCATCGCCTGACCGGAGTCACCTAGTGCAG” is 16000 fluorescence intensity (a.u.). Take “GTCCTTTACACTGATCCTGCACATCGCTCACTGTTTTCTTCGGAGTCACCTAGTGCAG”: the binding signal was 16800 fluorescence intensity (a.u.).

Regarding “GAGATCGTTATCCTTTACATGTCATTTGTTAGTTGGCATTCGGAGTCACCTAGTGCAG”, the binding signal was 8970 fluorescence intensity (a.u.).

Turning to “AAAAATATATCCAAGCAAATTCACACAGTCAAGTTCACTCCGGAGTCACCTAGTGCAG”, the binding signal was 14800 fluorescence intensity (a.u.). For “ATTTTAATCGCGTTCGTATATGTTCTGTGAGAATAGTTTCCGGAGTCACCTAGTGCAG”, the binding signal was 10800 fluorescence intensity (a.u.).

For the sequence “CGTTTCCGTCTCCGCCCGCCCGCCCGCCGTCGTGCGCGCCCGGAGTCACCTAGTGCAG”, the binding signal is 13100 fluorescence intensity (a.u.).

These data come from article PMC7819943, “Rice protein-binding microarrays: a tool to detect cis-acting elements near promoter regions in rice”.
